The results in this text go back to paper PMC8927976.

Sequences of proteins named here, by UniProt entry; tags and fusion partners are left off.
UniProt O04719: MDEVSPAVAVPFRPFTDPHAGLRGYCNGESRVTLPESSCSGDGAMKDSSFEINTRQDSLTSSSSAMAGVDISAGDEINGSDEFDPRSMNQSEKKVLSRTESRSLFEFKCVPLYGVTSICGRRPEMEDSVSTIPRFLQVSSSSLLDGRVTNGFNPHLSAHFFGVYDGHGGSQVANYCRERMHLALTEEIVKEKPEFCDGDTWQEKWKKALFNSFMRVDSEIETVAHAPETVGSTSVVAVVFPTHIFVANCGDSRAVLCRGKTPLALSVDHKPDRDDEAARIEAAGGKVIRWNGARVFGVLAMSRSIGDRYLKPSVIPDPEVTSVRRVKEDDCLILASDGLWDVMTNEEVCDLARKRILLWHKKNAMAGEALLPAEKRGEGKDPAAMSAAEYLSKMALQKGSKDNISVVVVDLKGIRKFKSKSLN

The experiment concerns the target ABI2, BiFC fusion (pSPYNE-ABI2) (UniProt O04719). The experiment can be described thus: split reporter; BiFC (split YFP); Agrobacterium GV3101 infiltration of Nicotiana tabacum leaves, 72 h, confocal or epifluorescence microscopy (results speak of Arabidopsis protoplasts).

These are yes or no findings as the source states them, for the method shown. Binding seen in cells or lysates may run through a third protein. Some binding calls cover weakened binding; strength is not graded here. Sequences can lack the tags named with a protein.

B1: RCAR1, BiFC fusion (pSPYCE-RCAR1) (protein, UniProt Q84MC7 1-187)
chain: MMDGVEGGTAMYGGLETVQYVRTHHQHLCRENQCTSALVKHIKAPLHLVWSLVRRFDQPQKYKPFVSRCTVIGDPEIGSLREVNVKSGLPATTSTERLELLDDEEHILGIKIIGGDHRLKNYSSILTVHPEIIEGRAGTMVIESFVVDVPQGNTKDETCYFVEALIRCNLKSLADVSERLASQDITQ
Regarding B1, the binding result was “binds”.
